From the M2OR odorant receptor database come the findings set out here.

Each structure is given as a SMILES string. The list shows a part of the results, in another mix than the full data. The calls were merged from several studies; some rest on single wells. The list shows a part of the results.

Holding throughout (details): stereoisomer not certain
One experiment has as its target T1, UniProt Q8VFG6.
T1 sequence (whole entry): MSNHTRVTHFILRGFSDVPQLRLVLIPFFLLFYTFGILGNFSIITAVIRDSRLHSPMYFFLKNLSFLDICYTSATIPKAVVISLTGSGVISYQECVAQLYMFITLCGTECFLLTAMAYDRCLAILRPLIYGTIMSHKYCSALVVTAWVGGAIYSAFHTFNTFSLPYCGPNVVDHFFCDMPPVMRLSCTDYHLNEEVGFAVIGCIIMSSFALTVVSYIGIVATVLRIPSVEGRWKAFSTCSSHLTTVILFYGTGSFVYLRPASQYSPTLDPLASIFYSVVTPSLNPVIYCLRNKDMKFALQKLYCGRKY
Put shortly:
(§1)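 Values were gathered from published papers (main text and supplementary material), with extra details requested from the original authors when needed, and checked for typos and inconsistencies. Each receptor–molecule pair is called responsive (active) if the original authors judged the measured signal statistically different from baseline, and non-responsive (inactive) otherwise. Assay methods varied by source, often transient mammalian cell-line luciferase assays. Recorded details include cell line, G-protein, co-transfected protein and tags.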

The target of a further experiment is T2, UniProt Q8VFM8.
T2 sequence (whole entry): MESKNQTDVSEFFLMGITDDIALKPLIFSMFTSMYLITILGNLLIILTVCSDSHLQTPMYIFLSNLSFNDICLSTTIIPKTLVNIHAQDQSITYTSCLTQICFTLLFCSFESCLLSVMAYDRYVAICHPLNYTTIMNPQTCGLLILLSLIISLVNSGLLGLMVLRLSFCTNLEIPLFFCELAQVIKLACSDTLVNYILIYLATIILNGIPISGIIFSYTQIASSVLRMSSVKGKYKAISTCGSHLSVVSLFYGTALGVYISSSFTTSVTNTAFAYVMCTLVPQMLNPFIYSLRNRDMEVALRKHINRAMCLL
Put shortly:
as §1

The target in another experiment is T3, UniProt Q8VFP5.
T3 sequence (whole entry): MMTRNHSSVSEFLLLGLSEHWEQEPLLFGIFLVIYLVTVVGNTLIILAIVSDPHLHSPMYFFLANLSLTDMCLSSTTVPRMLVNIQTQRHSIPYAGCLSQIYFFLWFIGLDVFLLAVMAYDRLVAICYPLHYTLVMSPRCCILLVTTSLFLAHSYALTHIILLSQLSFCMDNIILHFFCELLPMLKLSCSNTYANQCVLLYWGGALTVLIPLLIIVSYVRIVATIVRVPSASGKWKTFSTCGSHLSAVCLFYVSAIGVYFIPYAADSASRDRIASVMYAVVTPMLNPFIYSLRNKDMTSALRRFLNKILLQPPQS
The method, boiled down:
as §1

A further experiment addresses T4, UniProt Q8VFZ6.
T4 sequence (whole entry): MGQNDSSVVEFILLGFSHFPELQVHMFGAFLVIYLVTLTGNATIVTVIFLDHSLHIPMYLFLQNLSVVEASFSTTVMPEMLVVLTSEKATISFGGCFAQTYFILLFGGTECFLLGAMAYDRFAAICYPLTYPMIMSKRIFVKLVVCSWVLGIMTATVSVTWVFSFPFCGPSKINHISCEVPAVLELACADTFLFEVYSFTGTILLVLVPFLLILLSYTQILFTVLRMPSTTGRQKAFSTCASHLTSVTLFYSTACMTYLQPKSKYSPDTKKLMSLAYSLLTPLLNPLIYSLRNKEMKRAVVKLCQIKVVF
Put shortly: as §1

Another experiment addresses T5, UniProt Q8VG01.
T5 sequence (whole entry): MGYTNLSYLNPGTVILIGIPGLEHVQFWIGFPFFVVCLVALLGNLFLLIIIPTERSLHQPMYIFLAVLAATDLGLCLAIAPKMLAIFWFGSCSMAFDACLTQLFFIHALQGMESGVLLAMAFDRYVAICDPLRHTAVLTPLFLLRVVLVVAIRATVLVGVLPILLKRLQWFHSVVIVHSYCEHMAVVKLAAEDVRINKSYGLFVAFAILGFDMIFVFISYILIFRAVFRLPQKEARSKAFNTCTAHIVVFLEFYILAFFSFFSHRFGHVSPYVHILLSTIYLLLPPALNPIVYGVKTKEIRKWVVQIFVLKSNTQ
Put shortly:
as §1

The target in a further experiment is T6, UniProt Q8VG22.
T6 sequence (whole entry): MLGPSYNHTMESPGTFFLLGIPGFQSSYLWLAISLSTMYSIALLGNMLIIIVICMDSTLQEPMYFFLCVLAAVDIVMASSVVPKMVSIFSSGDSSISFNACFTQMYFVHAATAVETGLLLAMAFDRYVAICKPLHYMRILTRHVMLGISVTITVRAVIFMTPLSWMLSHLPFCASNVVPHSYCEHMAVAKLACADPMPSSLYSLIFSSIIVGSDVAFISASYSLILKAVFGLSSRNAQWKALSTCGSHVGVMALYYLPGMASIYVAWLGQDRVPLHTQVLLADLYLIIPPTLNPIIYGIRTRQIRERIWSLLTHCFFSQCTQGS
The method, boiled down: as §1

The target of another experiment is T7, UniProt Q8VG27.
T7 sequence (whole entry): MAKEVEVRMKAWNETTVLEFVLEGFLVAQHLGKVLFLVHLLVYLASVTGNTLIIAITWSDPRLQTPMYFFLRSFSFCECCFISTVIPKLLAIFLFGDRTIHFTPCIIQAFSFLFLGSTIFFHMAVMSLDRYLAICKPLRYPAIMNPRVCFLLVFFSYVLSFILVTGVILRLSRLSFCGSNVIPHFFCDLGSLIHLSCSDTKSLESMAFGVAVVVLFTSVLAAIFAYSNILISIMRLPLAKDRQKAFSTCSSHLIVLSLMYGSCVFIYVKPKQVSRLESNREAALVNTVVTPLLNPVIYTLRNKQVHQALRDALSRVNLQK
Put shortly:
as §1

A further experiment concerns the target T8, UniProt Q8VG49.
T8 sequence (whole entry): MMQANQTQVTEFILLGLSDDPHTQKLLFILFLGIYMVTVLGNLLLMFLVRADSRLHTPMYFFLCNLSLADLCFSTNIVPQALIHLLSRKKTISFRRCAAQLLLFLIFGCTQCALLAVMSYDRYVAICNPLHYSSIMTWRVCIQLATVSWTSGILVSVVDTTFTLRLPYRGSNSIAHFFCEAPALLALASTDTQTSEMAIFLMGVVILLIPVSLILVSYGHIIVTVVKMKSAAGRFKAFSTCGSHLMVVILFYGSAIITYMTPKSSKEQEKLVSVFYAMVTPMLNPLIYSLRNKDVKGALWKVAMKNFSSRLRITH
Put shortly:
as §1

For another experiment, the target named is T9, UniProt Q8VG53.
T9 sequence (whole entry): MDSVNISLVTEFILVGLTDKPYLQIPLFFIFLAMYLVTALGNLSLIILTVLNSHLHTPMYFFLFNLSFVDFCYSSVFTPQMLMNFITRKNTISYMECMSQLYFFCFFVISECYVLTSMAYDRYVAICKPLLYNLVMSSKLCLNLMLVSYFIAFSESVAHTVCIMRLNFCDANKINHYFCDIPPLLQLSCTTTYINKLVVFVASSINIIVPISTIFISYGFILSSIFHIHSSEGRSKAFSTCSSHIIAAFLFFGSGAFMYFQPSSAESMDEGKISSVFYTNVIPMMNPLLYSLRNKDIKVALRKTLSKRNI
The method, boiled down: as §1

Another experiment concerns the target T10, UniProt Q8VG64.
T10 sequence (whole entry): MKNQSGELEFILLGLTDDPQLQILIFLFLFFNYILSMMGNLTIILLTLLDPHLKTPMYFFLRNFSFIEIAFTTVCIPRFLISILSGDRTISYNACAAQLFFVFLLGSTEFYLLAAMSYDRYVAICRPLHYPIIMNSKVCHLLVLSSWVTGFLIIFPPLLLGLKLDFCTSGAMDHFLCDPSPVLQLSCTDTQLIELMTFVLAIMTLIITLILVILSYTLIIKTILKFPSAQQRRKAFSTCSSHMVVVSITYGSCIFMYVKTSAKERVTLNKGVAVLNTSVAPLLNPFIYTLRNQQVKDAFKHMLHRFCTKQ
Put shortly: as §1

For another experiment, the target named is T11, UniProt Q8VG77.
T11 sequence (whole entry): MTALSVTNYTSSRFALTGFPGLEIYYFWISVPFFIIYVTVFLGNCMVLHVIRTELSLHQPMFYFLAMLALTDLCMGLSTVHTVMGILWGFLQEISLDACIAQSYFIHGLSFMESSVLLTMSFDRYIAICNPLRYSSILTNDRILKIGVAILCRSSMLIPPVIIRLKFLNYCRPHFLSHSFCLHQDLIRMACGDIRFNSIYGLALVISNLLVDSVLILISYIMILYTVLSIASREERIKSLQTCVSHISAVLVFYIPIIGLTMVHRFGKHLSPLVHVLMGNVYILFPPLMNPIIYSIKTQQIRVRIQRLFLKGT
Put shortly:
as §1

The target in the next experiment is T12, UniProt Q8VG96.
T12 sequence (whole entry): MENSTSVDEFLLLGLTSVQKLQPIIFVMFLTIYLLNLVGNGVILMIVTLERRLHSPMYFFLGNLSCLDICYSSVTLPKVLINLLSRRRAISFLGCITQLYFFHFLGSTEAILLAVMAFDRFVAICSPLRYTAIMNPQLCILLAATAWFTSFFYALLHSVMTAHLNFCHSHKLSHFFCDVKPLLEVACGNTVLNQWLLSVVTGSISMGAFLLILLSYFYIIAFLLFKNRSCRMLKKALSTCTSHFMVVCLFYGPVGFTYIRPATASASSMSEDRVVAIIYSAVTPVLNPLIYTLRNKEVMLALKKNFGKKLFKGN
Put shortly: as §1

The target in another experiment is T13, UniProt Q8VGB9.
T13 sequence (whole entry): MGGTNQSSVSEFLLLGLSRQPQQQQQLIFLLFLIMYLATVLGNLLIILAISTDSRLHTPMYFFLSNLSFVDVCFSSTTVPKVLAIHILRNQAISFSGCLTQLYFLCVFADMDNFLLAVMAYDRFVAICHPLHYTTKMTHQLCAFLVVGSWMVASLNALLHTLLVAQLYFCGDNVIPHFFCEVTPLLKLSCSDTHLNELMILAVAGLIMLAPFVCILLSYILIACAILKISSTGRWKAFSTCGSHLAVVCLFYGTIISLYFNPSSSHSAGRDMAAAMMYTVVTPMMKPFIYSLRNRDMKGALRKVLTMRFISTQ
The method, boiled down: as §1

The target of the next experiment is T14, UniProt Q8VGC6.
T14 sequence (whole entry): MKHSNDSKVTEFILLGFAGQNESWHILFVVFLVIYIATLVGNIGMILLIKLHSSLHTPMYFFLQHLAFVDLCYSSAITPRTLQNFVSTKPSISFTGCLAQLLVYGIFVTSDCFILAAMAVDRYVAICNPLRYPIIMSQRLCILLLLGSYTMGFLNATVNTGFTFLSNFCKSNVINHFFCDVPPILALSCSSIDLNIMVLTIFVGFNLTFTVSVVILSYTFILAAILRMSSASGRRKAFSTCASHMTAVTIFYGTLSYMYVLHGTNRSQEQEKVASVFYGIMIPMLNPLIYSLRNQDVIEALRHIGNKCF
The method, boiled down: as §1

In the next experiment the target is T15, UniProt Q8VGD7.
T15 sequence (whole entry): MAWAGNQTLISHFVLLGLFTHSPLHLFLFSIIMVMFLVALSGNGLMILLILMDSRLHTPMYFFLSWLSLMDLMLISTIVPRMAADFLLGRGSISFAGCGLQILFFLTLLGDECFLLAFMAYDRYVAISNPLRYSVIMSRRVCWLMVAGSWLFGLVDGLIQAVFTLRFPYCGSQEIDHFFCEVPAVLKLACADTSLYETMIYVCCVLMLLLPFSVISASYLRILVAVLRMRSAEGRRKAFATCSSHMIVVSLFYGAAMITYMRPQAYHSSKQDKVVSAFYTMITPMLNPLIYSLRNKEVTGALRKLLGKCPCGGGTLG
The method, boiled down: as §1

`CCCCCCCCCC=O`: the “odorant receptor agonist call” value in the experiment with UniProt Q8VFG6, with UniProt Q8VFM8, in the experiment with UniProt Q8VFP5, with UniProt Q8VFZ6, with UniProt Q8VG01 and with UniProt Q8VG22 was “inactive” each time. Moreover, the “odorant receptor agonist call” value with UniProt Q8VG27, in the experiment with UniProt Q8VG49, with UniProt Q8VG53, with UniProt Q8VG64, with UniProt Q8VG77 and in the experiment with UniProt Q8VG96 was “inactive” each time. The “odorant receptor agonist call” value with UniProt Q8VGB9, with UniProt Q8VGC6 and with UniProt Q8VGD7 was “inactive” throughout.

For `CCCCCC(C)=O`, the “odorant receptor agonist call” value with UniProt Q8VFG6, in the experiment with UniProt Q8VFM8, with UniProt Q8VFP5, with UniProt Q8VFZ6, with UniProt Q8VG01 and with UniProt Q8VG22 was “inactive” each time. In addition, the “odorant receptor agonist call” value with UniProt Q8VG27, in the experiment with UniProt Q8VG49, with UniProt Q8VG53, in the experiment with UniProt Q8VG64, with UniProt Q8VG77 and with UniProt Q8VG96 was “inactive” each time. Also, the “odorant receptor agonist call” value with UniProt Q8VGB9 and with UniProt Q8VGD7 was “inactive” in each case. Moreover, the “odorant receptor agonist call” value with UniProt Q8VGC6 was “active”.

With `COc1cc(C=O)ccc1O`, the “odorant receptor agonist call” value with UniProt Q8VFM8, with UniProt Q8VFP5, with UniProt Q8VG01, in the experiment with UniProt Q8VG27, with UniProt Q8VG53 and with UniProt Q8VG64 was “inactive” throughout. Further, the “odorant receptor agonist call” value with UniProt Q8VGB9 and in the experiment with UniProt Q8VGC6 was “inactive” throughout.
